Measured values: paper PMC3527510, “Bin2 Is a Membrane Sculpting N-BAR Protein That Influences Leucocyte Podosomes, Motility and Phagocytosis” (PLoS ONE, 2012)
Results are given in words; binding and its absence hold for the method and conditions named. In cells and extracts the contact can be indirect. Some binding calls cover weakened binding; strength is not graded here.

T1: Bin2, endogenous in rat mast cells (RBL·2H3) (rat (endogenous in RBL·2H3)) (UniProt Q68FR2)
T1 sequence: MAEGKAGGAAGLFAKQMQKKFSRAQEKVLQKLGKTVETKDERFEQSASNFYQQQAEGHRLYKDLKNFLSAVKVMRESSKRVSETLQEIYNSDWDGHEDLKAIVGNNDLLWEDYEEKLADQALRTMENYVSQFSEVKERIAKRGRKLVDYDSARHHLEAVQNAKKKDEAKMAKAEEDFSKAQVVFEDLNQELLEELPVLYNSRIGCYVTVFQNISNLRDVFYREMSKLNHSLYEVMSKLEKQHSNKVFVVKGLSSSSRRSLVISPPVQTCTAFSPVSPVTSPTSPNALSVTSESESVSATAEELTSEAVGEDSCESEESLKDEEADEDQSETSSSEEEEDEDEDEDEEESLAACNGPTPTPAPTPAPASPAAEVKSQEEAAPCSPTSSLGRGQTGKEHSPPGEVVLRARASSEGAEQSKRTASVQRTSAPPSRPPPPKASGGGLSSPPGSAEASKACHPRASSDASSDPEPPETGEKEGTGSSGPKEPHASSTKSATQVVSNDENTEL

B1: β-PIX, endogenous in rat mast cells (RBL·2H3) (protein, UniProt O55043 1-646)
chain: MTDNANSQLVVRAKFNFQQTNEDELSFSKGDVIHVTRVEEGGWWEGTHNGRTGWFPSNYVREIKPSEKPVSPKSGTLKSPPKGFDTTAINKSYYNVVLQNILETEHEYSKELQSVLSTYLWPLQTSEKLSSANTSYLMGNLEEISSFQQVLVQSLEECTKSPEAQQRVGGCFLSLMPQMRTLYLAYCANHPSAVSVLTEHSEDLGEFMETKGASSPGILVLTTGLSKPFMRLDKYPTLLKELERHMEDYHPDRQDIQKSMTAFKNLSAQCQEVRKRKELELQILTEPIRSWEGDDIKTLGSVTYMSQVTIQCAGSEEKNERYLLLFPNLLLMLSASPRMSGFIYQGKLPTTGMTITKLEDSENHRNAFEISGSMIERILVSCNNQQDLHEWVEHLQRQTKVTSVSNPTIKPHSVPSHTLPSHPLTPSSKHADSKPVALTPAYHTLPHPSHHGTPHTTISWGPLEPPKTPKPWSLSCLRPAPPLRPSAALCYKEDLSRSPKTMKKLLPKRKPERKPSDEEFAVRKSTAALEEDAQILKVIEAYCTSAKTRQTLNSSSRKESAPQVLLPEEEKIIVEETKSNGQTVIEEKSLVDTVYALKDEVQELRQDNKKMKKSLEEEQRARKDLEKLVRKVLKNMNDPAWDETNL
B2: Git2, endogenous in rat mast cells (RBL·2H3) (protein, UniProt Q66H91 1-759)
chain: MSKRLRSNDVCADCSGPDPSWASVNRGTLICDECCSVHRSLGRHISQVRHLKHTPWPPTLLQMVETLYSNGANSIWEHSLLDPASVMSGRRKANPQDKVHPNKAEFIRAKYQMLAFVHRLPCRDDDSVTAKDLSKQLHSSVRTGNLETCLRLLSLGAQANFFHPEKGSTPLHVASKAGQILQAELLAVYGADPGTHDSSGKTPVDYARQGGHRELAERLVEIQYELTDRLAFYLCGRKPDHKNGQHFIIPQMADSSLDLSELAKAAKKKLQSLSNHLFEELAMDVYDEVDRRETDAVWLATQNHSTLVTETTVVPFLPVNPEYSSTRNQGRQKLARFNAHEFATLVIDILSDAKRRQQGSPLSRSKDNVELILRTVSNQHSTESQDNDQPDYDSVASDEDTDVETRASRTNRQKSLDSDLSDGPVTVQEFMEVKHALVASEAKRQQLMKVNNNLSGELRIMQKKLQTLQSENSSLRRQATASACQVQTASDHKDTVSHSSLKRRPSARGSRPMSMYETGSGQKPYLPMGEANHPEESRTRLQPFPTHIGRSALVTSSSSLPSFPSTLSWSRDESTRRASRLEKQNSTPESDYDNTAYDPEPDDTVSGRKGRQRSMLWQGDGPLPDTAEPHAVPSPALPSTEDVIRKTEQITKNIQELLRAAQENKHDSYIPCSERIHAAVTEMAALFPKKPKSDTVRTSLRLLTASAYRLQSECRKALPGDSSLPTDVQLVTQQVIQCAYDIAKAAKQLVTITTKENSS
B3: α-PIX, endogenous in rat mast cells (RBL·2H3) (protein, UniProt Q5XXR3 1-772)
chain: MNPEERVVTWLISLGVLESPKKTICDPEEFLKSSLKNGVVLCKLISRLLPGSVEKYCQEPQTEADCIDNINDFLKGCATLQVEVFEPDDLYSGANFSKVLNTLLAVNKATEDQLSERPCGRSSSLSATTSSQTNPQAAVPSTTPEQQSEEKAAEMTENGSHQLIVKARFNFKQTNEDELSVCKGDIIYVTRVEEGGWWEGTLNGRTGWFPSNYVREIKPSERPLSPKAVKGFDTAPLTKNYYTVVLQNILDTEKEYAKELQSLLVTYLRPLQSNNNLSTVEFTCLLGNFEEVCTFQQTLCQALEECSKSPENQHKVGGCLLNLMPHFKSMYLAYCANHPSAVNVLTQHSDDLERFMENQGASSPGILILTTSLSKPFMRLEKYVTLLQELERHMEDTHPDHQDILKAIIAFKSLMGQCQDLRKRKQLELQILSEPIQAWEGDDIKTLGNVIFMSQVVMQHGACEEKEERYFLLFSSVLIMLSASPRMSGFMYQGKVPIAGMVVTRLDEIEGNDCTFEITGSTVERIVVHCNNNQDFQEWMEQLNRLTKGPASCSSLSKTSSSSCSTHSSFSSTGQPRGPLEPPQIIKPWSLSCLRPAPPLRPSAALGYKERMSYILKESSKSPKTMKKFLHKRKTERKTSEEEYVIRKSTAALEEDAQILKVIEAYCTSASFQQGTRKDSVPQVLLPEEEKLIIEETRSNGQTIIEEKSLVDTVYALKDEVKELKQENKKMKQCLEEELKSRKDLEKLVRKLLKQTDESIRAESSSKTSILQ

target: T1, Bin2, endogenous in rat mast cells (RBL·2H3) (rat (endogenous in RBL·2H3)); assay: co-IP; anti-Bin2 polyclonal antibody (BACT) on protein A:G Sepharose with lysates of human B cells (721.221) or rat mast cells (RBL·2H3), 4°C, 3 h; 20 mM HEPES, 150 mM NaCl, 1 mM DTT, 0.3% Triton X-100, 1% NP-40; Coomassie bands identified by LC-MS/MS; control with pre-immune serum

Row | binding | Binder
1 | binds | B1
2 | binds | B2
3 | binds | B3
